The source gives many values for each of these; only a part stands here.
Tested on: PBMC of RRMS patients
Assay: Gene expression microarray analysis (HG-U133A-2) of PBMC from RRMS patients treated with LAQ, ancillary study to ALLEGRO
Format: in vivo, human
Excerpt: The goal of this ancillary study was to characterize gene expression changes and corresponding biological mechanisms induced in PBMC of RRMS patients by LAQ treatment. According to ALLEGRO clinical trial inclusion criteria, 25 patients were randomly assigned to receive LAQ (n=13, age 38.8±2.3 years, female/male ratio: 8/5) or placebo (n=12, age 37.2±3.4 years, female/male ratio: 8/4).
Peripheral blood samples were obtained from RRMS patients at baseline before start of LAQ treatment or placebo, after 0, 1, 6 and 24 month of treatment (visit 0, 1, 6 and 7 according to ALLEGRO clinical trial protocol correspondently) for gene microarray analysis.
Briefly, 1) Peripheral blood mononuclear cells (PBMC) were obtained from RRMS patients that participated in ALLEGRO and were treated daily with 0.6 mg LAQ or placebo. PBMC were subjected for gene expression analysis (HU-133A-2-Affymatrix arrays) at baseline and at 1 and 6 months of LAQ treatment; 2) Data was analyzed by Partek Genomics Solution software. Most informative genes (MIGs) were defined as those that differentiated between groups with p<0.01. Gene functional annotation, enrichment and pathway analysis were performed by Ingenuity software. For each time point, genes that changed in placebo group were excluded from further analysis; and 3) Verification of LAQ related mechanism was performed by Western blot.
PBMC were extracted from 15 ml peripheral blood, separated by Ficoll-Hypaque gradient. Total RNA was extracted using both Trizol (Invitrogen, USA) and Phase-Lock-Gel columns (Eppendorf, Germany) including a DNase digestion step. RNA integrity was assessed by RNA Experion automated electrophoresis system (Bio-Rad Laboratories, Hercules, Calif.).
Probe synthesis using 3 μg total RNA, hybridization, detection, and scanning was performed according to the standard Affymetrix, Inc. USA protocols; cDNA was synthesized using the Two-Cycle cDNA Synthesis Kit (Affymetrix, Inc., USA), and in-vitro transcription performed with the GeneChip IVT Labeling Kit (Affymetrix, Inc., USA). The biotin-labeled IVT-RNA was hybridized to HG-U133A-2 arrays containing 18,400 gene transcripts, each corresponding to 14,500 well-annotated human genes, washed in a GeneChip Fluidics Station 450 (Hewlett Packard, USA, GeneArray-™ scanner G2500A) and scanned according to the manufacturer's protocol (Affymetrix, Inc., USA).
Data analysis was performed on Partek Genomics Solution software (www.partek.com; Partek Incorporated, St. Louis, Mo.). Expression values were computed from raw CEL files by applying the Robust Multi-Chip Average (RMA) background correction algorithm. RMA correction included: 1) values background correction; 2) quintile normalization; 3) log 2 transformation; and 4) median polish summarization. The ANOVA, Repeated Measures and correlation analysis implicated in Partek software ware applied to evaluate LAQ effects. Most informative genes MIGs were defined as those that differentiated between experimental groups with p<0.01. All p-values were calculated for False Discovery Rate (FDR) multiple test correction at p=0.05.
Additionally, significance of individual genes was tested by parametric T-test and non parametric Mann-Whitney test using Bootstrapping approach based on repeated permutations of the data with 5% FDR for multiple testing.
Gene functional annotation, enrichment, and pathway analyses to identify the leading biological pathways that operated under LAQ treatment were performed by Ingenuity Pathways Analysis software (www.ingenuity.com).
ANOVA analysis was used to compare PBMC gene expression after 1, 6 or 24 month of LAQ treatment with baseline gene expression.
For each time point inventors performed analysis source of variation in dataset. (FIG. 1). Age, gender and batch effects were considered as confounders regarding LAQ or Placebo related changes. For each time point genes associated with Placebo effect were evaluated and excluded from further analysis. […]

For `CCN(C(=O)c1c(O)c2c(Cl)cccc2n(C)c1=O)c1ccccc1` [LAQ, 5-chloro-N-ethyl-4-hydroxy-1-methyl-2-oxo-N-phenyl-1,2-dihydroquinoline-3-carboxamide], the “Fold-Change (4.0 vs. 0.0)” value (gene MYH15, six months of treatment) was −1.154, the “Fold-Change (4.0 vs. 0.0)” value (gene MYL10, after six months of LAQ) was −1.247 and the “Fold-Change (4.0 vs. 0.0)” value (gene MYO9B, after six months of LAQ) was −1.279. For the same compound, the “Fold-Change (4.0 vs. 0.0)” value (gene MYOG, six months of treatment) was −1.154, the “Fold-Change (4.0 vs. 0.0)” value (gene MYOZ2, PBMC, six months of LAQ treatment) was −1.113 and the “Fold-Change (4.0 vs. 0.0)” value (gene MYT1, six months of treatment) was −1.148. For the same compound, the “Fold-Change (4.0 vs. 0.0)” value (gene NACA2) was −1.177, the “Fold-Change (4.0 vs. 0.0)” value (gene NACAD, after six months of LAQ) was −1.123 and the “Fold-Change (4.0 vs. 0.0)” value (gene NAT8, after six months of LAQ) was −1.14. The “Fold-Change (4.0 vs. 0.0)” value (gene NCAPH2, after six months of LAQ) was −1.136, the “Fold-Change (4.0 vs. 0.0)” value (gene NCRNA00120, PBMC, six months of LAQ treatment) was −1.118 and the “Fold-Change (4.0 vs. 0.0)” value (gene NES, after six months of LAQ) was −1.141. For the same compound, the “Fold-Change (4.0 vs. 0.0)” value (gene NFATC4, PBMC, six months of LAQ treatment) was −1.112, the “Fold-Change (4.0 vs. 0.0)” value (gene NFIB, after six months of LAQ) was −1.2706 and the “Fold-Change (4.0 vs. 0.0)” value (gene NHLH1, after six months of LAQ) was −1.305. For the same compound, the “Fold-Change (4.0 vs. 0.0)” value (gene NHLH2, after six months of LAQ) was −1.123, the “Fold-Change (4.0 vs. 0.0)” value (gene NKX3-1, after six months of LAQ) was −1.231 and the “Fold-Change (4.0 vs. 0.0)” value (gene NPBWR2, six months of treatment) was −1.159. The “Fold-Change (4.0 vs. 0.0)” value (gene NR1D1 /// THRA, after six months of LAQ) was −1.129, the “Fold-Change (4.0 vs. 0.0)” value (gene NR5A2, after six months of LAQ) was −1.135 and the “Fold-Change (4.0 vs. 0.0)” value (gene NRIP2, PBMC, six months of LAQ treatment) was −1.12. The “Fold-Change (4.0 vs. 0.0)” value (gene NRP2, after six months of LAQ) was −1.129, the “Fold-Change (4.0 vs. 0.0)” value (gene NRXN1, six months of treatment) was −1.15 and the “Fold-Change (4.0 vs. 0.0)” value (gene NRXN2) was −1.1914. For the same compound, the “Fold-Change (4.0 vs. 0.0)” value (gene NTF3) was −1.186, the “Fold-Change (4.0 vs. 0.0)” value (gene NTS, PBMC, six months of LAQ treatment) was −1.108 and the “Fold-Change (4.0 vs. 0.0)” value (gene NUDT7, after six months of LAQ) was −1.26. For the same compound, the “Fold-Change (4.0 vs. 0.0)” value (gene OBP2A /// OBP2B, after six months of LAQ) was −1.141, the “Fold-Change (4.0 vs. 0.0)” value (gene OBSL1, six months of treatment) was −1.152 and the “Fold-Change (4.0 vs. 0.0)” value (gene OLAH, after six months of LAQ) was −1.123. For the same compound, the “Fold-Change (4.0 vs. 0.0)” value (gene OR2F1 /// OR2F2, six months of treatment) was −1.157, the “Fold-Change (4.0 vs. 0.0)” value (gene OR2H2, six months of treatment) was −1.159 and the “Fold-Change (4.0 vs. 0.0)” value (gene OR7A17, after six months of LAQ) was −1.329. For the same compound, the “Fold-Change (4.0 vs. 0.0)” value (gene OR7E19P) was −1.188, the “Fold-Change (4.0 vs. 0.0)” value (gene OR10H2, PBMC, six months of LAQ treatment) was −1.116 and the “Fold-Change (4.0 vs. 0.0)” value (gene OR10J1, six months of treatment) was −1.159. The “Fold-Change (4.0 vs. 0.0)” value (gene OR52A1) was −1.186, the “Fold-Change (4.0 vs. 0.0)” value (gene ORAI2) was −1.186 and the “Fold-Change (4.0 vs. 0.0)” value (gene OSBPL10, six months of treatment) was −1.149. The “Fold-Change (4.0 vs. 0.0)” value (gene OSGIN2, after six months of LAQ) was −1.134, the “Fold-Change (4.0 vs. 0.0)” value (gene OTOF, after six months of LAQ) was −1.143 and the “Fold-Change (4.0 vs. 0.0)” value (gene OTUB1, six months of treatment) was −1.145. The “Fold-Change (4.0 vs. 0.0)” value (gene PAEP, six months of treatment) was −1.158, the “Fold-Change (4.0 vs. 0.0)” value (gene PAH, PBMC, six months of LAQ treatment) was −1.119 and the “Fold-Change (4.0 vs. 0.0)” value (gene PAPOLA, after six months of LAQ) was −1.2676. For the same compound, the “Fold-Change (4.0 vs. 0.0)” value (gene PAPPA, six months of treatment) was −1.145, the “Fold-Change (4.0 vs. 0.0)” value (gene PARK2, after six months of LAQ) was −1.139 and the “Fold-Change (4.0 vs. 0.0)” value (gene PAX2, six months of treatment) was −1.151. The “Fold-Change (4.0 vs. 0.0)” value (gene PAX3) was −1.177, the “Fold-Change (4.0 vs. 0.0)” value (gene PCDH11Y, PBMC, six months of LAQ treatment) was −1.121 and the “Fold-Change (4.0 vs. 0.0)” value (gene PCDHA10, six months of treatment) was −1.145. For the same compound, the “Fold-Change (4.0 vs. 0.0)” value (gene PCDHB3, six months of treatment) was −1.148, the “Fold-Change (4.0 vs. 0.0)” value (gene PCDHGA3, after six months of LAQ) was −1.137 and the “Fold-Change (4.0 vs. 0.0)” value (gene PCNXL2, six months of treatment) was −1.144. For the same compound, the “Fold-Change (4.0 vs. 0.0)” value (gene PDCD6, six months of treatment) was −1.16, the “Fold-Change (4.0 vs. 0.0)” value (gene PDE6G, after six months of LAQ) was −1.138 and the “Fold-Change (4.0 vs. 0.0)” value (gene PDE10A, six months of treatment) was −1.16. For the same compound, the “Fold-Change (4.0 vs. 0.0)” value (gene PDE12, six months of treatment) was −1.159, the “Fold-Change (4.0 vs. 0.0)” value (gene PDIA2, after six months of LAQ) was −1.229 and the “Fold-Change (4.0 vs. 0.0)” value (gene PDLIM4) was −1.188. For the same compound, the “Fold-Change (4.0 vs. 0.0)” value (gene PDLIM4, after six months of LAQ) was −1.144, the “Fold-Change (4.0 vs. 0.0)” value (gene PDLIM7, after six months of LAQ) was −1.347 and the “Fold-Change (4.0 vs. 0.0)” value (gene PENK, after six months of LAQ) was −1.236. For the same compound, the “Fold-Change (4.0 vs. 0.0)” value (gene PGAM2, six months of treatment) was −1.16, the “Fold-Change (4.0 vs. 0.0)” value (gene PGK2, six months of treatment) was −1.157 and the “Fold-Change (4.0 vs. 0.0)” value (gene PHLDA3, six months of treatment) was −1.158. The “Fold-Change (4.0 vs. 0.0)” value (gene PHLDB1) was −1.1913, the “Fold-Change (4.0 vs. 0.0)” value (gene PID1, PBMC, six months of LAQ treatment) was 1.652 and the “Fold-Change (4.0 vs. 0.0)” value (gene PIR, after six months of LAQ) was −1.129. For the same compound, the “Fold-Change (4.0 vs. 0.0)” value (gene PITX3, after six months of LAQ) was −1.229, the “Fold-Change (4.0 vs. 0.0)” value (gene PKNOX2, after six months of LAQ) was −1.237 and the “Fold-Change (4.0 vs. 0.0)” value (gene PLA1A, after six months of LAQ) was −1.274. For the same compound, the “Fold-Change (4.0 vs. 0.0)” value (gene PLA2G6, after six months of LAQ) was −1.14, the “Fold-Change (4.0 vs. 0.0)” value (gene PLA2R1, after six months of LAQ) was −1.129 and the “Fold-Change (4.0 vs. 0.0)” value (gene PLAT, six months of treatment) was −1.157. The “Fold-Change (4.0 vs. 0.0)” value (gene PLCB4) was −1.195, the “Fold-Change (4.0 vs. 0.0)” value (gene PLK4, after six months of LAQ) was −1.23 and the “Fold-Change (4.0 vs. 0.0)” value (gene PLOD2, after six months of LAQ) was −1.307. The “Fold-Change (4.0 vs. 0.0)” value (gene PLVAP) was −1.195, the “Fold-Change (4.0 vs. 0.0)” value (gene PLXNA1) was −1.1951 and the “Fold-Change (4.0 vs. 0.0)” value (gene PLXNB1) was −1.193. The “Fold-Change (4.0 vs. 0.0)” value (gene PMS2L4) was −1.1883.

From patent publication US20160201132A1, “GENE EXPRESSION BIOMARKERS OF LAQUINIMOD RESPONSIVENESS” (Teva Pharmaceutical Industries Ltd., priority 2013, published 2016)
